Results deposited as PubChem BioAssay AID504791 (Drosophila RNAi Screening Center, 2011)
In all, the deposit lists about 23,000 reagents; below is an unselected part of those with a known target gene and a result. Over the whole deposit, 199 (0.86%) are marked active. 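Plate-scaled ratios behind the calls are not deposited; printed light signals are raw; many rows marked increased or decreased are still called inactive.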 Reagents against one gene are numbered here. The record does not give: the direction of the score.

- Test: 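Genes of the fly required for silencing by miRNA, siRNA or endo-siRNA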 (primary screen)
- System: Drosophila S2-derived reporter cells
- Reagent: long dsRNA against Drosophila genes, about 150-250 ng dsRNA per well (siRNA assay); about 80-120 ng (miRNA assay)
- Timing: about 5 days (siRNA assay); about 4 days (miRNA assay)
- Conditions: copper sulfate induction of reporters: 25 µM (siRNA assay); 200 mM stated (miRNA assay), 1-2 days before reading
- Read-out: 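Per-well ratio of Renilla over firefly light, expressed relative to that plate's average ratio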
- Units: stable assay Renilla, run 1 in luminescence; stable assay firefly, run 1 in luminescence
- Rule for the call: 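First-pass picks had plate-scaled ratios over 1.5 for the siRNA assay, over 1.6 for the miRNA assay, or under 0.6; two distinct dsRNAs had to score alike on retest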

Burs (Bursicon) | stable assay Renilla, run 1: 8175; stable assay firefly, run 1: 3.68e5; Call: inactive
CG4842 | stable assay Renilla, run 1: 7671; stable assay firefly, run 1: 5.91e5; Call: inactive
PGRP-LE (Peptidoglycan recognition protein LE) | stable assay Renilla, run 1: 8721; stable assay firefly, run 1: 5.25e5; Call: inactive
FucTB (alpha1,3-fucosyltransferase B) | stable assay Renilla, run 1: 7379; stable assay firefly, run 1: 3.26e5; Call: inactive
Rbm13 (RNA-binding motif protein 13) | stable assay Renilla, run 1: 5756; stable assay firefly, run 1: 3.25e5; Call: inactive
CG14204 | stable assay Renilla, run 1: 5526; stable assay firefly, run 1: 3.29e5; Call: inactive
Cyp28d2 (Cytochrome P450 28d2) | stable assay Renilla, run 1: 7615; stable assay firefly, run 1: 4.41e5; Call: inactive
Tbce (Tubulin-binding cofactor E) | stable assay Renilla, run 1: 11121; stable assay firefly, run 1: 1.50e6; Call: inactive
Ric (Ras-related protein interacting with calmodulin) | stable assay Renilla, run 1: 6172; stable assay firefly, run 1: 3.35e5; Call: inactive
CG15043 | stable assay Renilla, run 1: 6511; stable assay firefly, run 1: 5.14e5; Call: inactive
chas (chascon) #1 | stable assay Renilla, run 1: 5290; stable assay firefly, run 1: 4.44e5; Call: inactive
chas (chascon) #2 | stable assay Renilla, run 1: 5475; stable assay firefly, run 1: 4.33e5; Call: inactive
CG42286 (retired record) | stable assay Renilla, run 1: 6079; stable assay firefly, run 1: 2.74e5; Call: inactive
Aprt (Adenine phosphoribosyltransferase) | stable assay Renilla, run 1: 5842; stable assay firefly, run 1: 4.58e5; Call: inactive
Cam (Calmodulin) #1 | stable assay Renilla, run 1: 4931; stable assay firefly, run 1: 4.76e5; Call: inactive
Cam (Calmodulin) #2 | stable assay Renilla, run 1: 5183; stable assay firefly, run 1: 3.31e5; Call: inactive
Act88F (Actin 88F) | stable siRNA reporter change: reporter ratio lowered past the hit cutoff; stable assay Renilla, run 1: 7044; stable assay firefly, run 1: 6.86e5; Call: inactive
CG16952 | stable assay Renilla, run 1: 5858; stable assay firefly, run 1: 3.43e5; Call: inactive
CG4839 #1 | stable assay Renilla, run 1: 14232; stable assay firefly, run 1: 4.36e5; Call: inactive
CG4839 #2 | stable assay Renilla, run 1: 7559; stable assay firefly, run 1: 3.66e5; Call: inactive
Vmat (Vesicular monoamine transporter) #1 | stable assay Renilla, run 1: 8311; stable assay firefly, run 1: 4.25e5; Call: inactive
Vmat (Vesicular monoamine transporter) #2 | stable assay Renilla, run 1: 5811; stable assay firefly, run 1: 3.50e5; Call: inactive
Vmat (Vesicular monoamine transporter) #3 | stable assay Renilla, run 1: 8439; stable assay firefly, run 1: 5.24e5; Call: inactive
Buffy | stable assay Renilla, run 1: 5543; stable assay firefly, run 1: 3.30e5; Call: inactive
REPTOR-BP (REPTOR-binding partner) | stable assay Renilla, run 1: 8140; stable assay firefly, run 1: 5.71e5; Call: inactive
Cyp303a1 (Cytochrome P450 303a1) | stable assay Renilla, run 1: 8615; stable assay firefly, run 1: 4.89e5; Call: inactive
RpLP0 (Ribosomal protein LP0) #1 | stable assay Renilla, run 1: 6767; stable assay firefly, run 1: 3.46e5; Call: inactive
RpLP0 (Ribosomal protein LP0) #2 | miRNA reporter change: reporter ratio raised past the hit cutoff; stable assay Renilla, run 1: 8919; stable assay firefly, run 1: 4.26e5; Call: inactive

Targets above whose target name starts with V or v:
Vmat (Vesicular monoamine transporter) #1 | stable assay Renilla, run 1: 8311; stable assay firefly, run 1: 4.25e5; Call: inactive
Vmat (Vesicular monoamine transporter) #2 | stable assay Renilla, run 1: 5811; stable assay firefly, run 1: 3.50e5; Call: inactive
Vmat (Vesicular monoamine transporter) #3 | stable assay Renilla, run 1: 8439; stable assay firefly, run 1: 5.24e5; Call: inactive
